This passage reports binding results from publication doi:10.1101/2021.11.25.470006 (bioRxiv, 2021).

No constants are given. Whether binding was seen depends on the method and setting.

For the test, the target named is T1, Smc6 (Walker B mutant E1048Q) (S. cerevisiae), Q12749.
T1 chain: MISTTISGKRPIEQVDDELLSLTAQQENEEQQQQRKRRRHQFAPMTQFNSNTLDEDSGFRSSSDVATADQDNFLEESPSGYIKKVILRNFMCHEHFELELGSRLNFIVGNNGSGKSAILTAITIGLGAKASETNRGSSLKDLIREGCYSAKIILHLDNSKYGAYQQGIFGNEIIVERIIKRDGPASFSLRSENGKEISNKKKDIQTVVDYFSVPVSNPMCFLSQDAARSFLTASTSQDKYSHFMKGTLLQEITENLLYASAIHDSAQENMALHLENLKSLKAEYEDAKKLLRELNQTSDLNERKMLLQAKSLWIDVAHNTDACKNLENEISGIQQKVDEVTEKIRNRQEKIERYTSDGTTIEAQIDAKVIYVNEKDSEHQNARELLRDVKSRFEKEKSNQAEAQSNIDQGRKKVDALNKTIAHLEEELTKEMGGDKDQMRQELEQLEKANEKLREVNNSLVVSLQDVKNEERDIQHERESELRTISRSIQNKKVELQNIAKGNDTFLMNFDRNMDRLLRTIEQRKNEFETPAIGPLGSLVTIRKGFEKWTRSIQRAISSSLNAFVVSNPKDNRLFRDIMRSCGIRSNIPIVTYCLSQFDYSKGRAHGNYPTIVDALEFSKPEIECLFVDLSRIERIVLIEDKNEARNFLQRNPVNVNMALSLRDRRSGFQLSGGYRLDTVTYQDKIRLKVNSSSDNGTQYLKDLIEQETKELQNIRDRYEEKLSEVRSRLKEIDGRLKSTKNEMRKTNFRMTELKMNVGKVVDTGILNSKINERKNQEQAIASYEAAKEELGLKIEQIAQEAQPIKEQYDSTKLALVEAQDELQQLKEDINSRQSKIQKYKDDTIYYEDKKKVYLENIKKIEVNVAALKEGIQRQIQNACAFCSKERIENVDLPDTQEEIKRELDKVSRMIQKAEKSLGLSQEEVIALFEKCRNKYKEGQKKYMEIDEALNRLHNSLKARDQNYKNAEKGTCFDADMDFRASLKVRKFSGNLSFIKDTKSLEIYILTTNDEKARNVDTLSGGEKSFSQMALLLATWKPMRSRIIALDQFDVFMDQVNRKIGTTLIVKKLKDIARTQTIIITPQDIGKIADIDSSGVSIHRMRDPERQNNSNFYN
Nature of the test: cryo-EM structure. Particulars: remark: other sources report otherwise.

B1: Nse1, Q07913 1-336 (protein)
chain: MEVHEEQVSAPVTGDATAKYLLQYILSARGICHENALILALMRLETDASTLNTEWSIQQWVDKLNDYINAINVKLNLLGYKIIRINHGIGRNAVTLKAKQNFESFEDNTAIRAHNNDYAVLQSIVLPESNRFFVYVNLASTEETKLATRFNQNEIEFMKWAIEQFMISGETIVEGPALETSIIVKEVNRILVAATGDSNLAKWRKFSTFTVGSTNLFQFQELTATDIEDLLLRLCELKWFYRTQEGKFGIDLRCIAELEEYLTSMYNLNTCQNCHKLAIQGVRCGNESCREENEETGENSLSQIWHVDCFKHYITHVSKNCDRCGSSLITEGVYVI
modifications: here or on the partner: BS3-crosslinked within the holo-complex; BS3-crosslinked within the holo-complex
With B1, the binding entry is on record as “no binding”.

B2: Nse3, Q05541 1-303 (protein)
chain: MSSIDNDSDVDLTEDLAVAKIVKENPVARKMVRYILSRGESQNSIITRNKLQSVIHEAAREENIAKPSFSKMFMDINAILYNVYGFELQGLPSKNNMNAGGNGSNSNTNKSMPEPLGHRAQKFILLNNVPHSKNFDDFKILQSAHTYEELIVTGEYIGDDIASGTSNTLESKLSTDRDLVYKGVLSVILCIVFFSKNNILHQELIKFLETFGIPSDGSKIAILNITIEDLIKSLEKREYIVRLEEKSDTDGEVISYRIGRRTQAELGLESLEKLVQEIMGLEKEQTKSLHDDIIKSIGDSYSI
modifications: here or on the partner: BS3-crosslinked within the holo-complex; BS3-crosslinked within the holo-complex
On to B2, for which the binding result is listed as “no binding”.
